Measured values from publication PMC6756063, “TRiC/CCT chaperonins are essential for organ growth by interacting with insulin/TOR signaling in Drosophila” (Oncogene, 2019).
No constants are given. Whether binding was seen depends on the method and setting. For some of these results: In cells and extracts the contact can be indirect. Some results given as binding are weak or reduced against the parent protein; the word gives no strength. For some of these results: Tags and fused reporters may be left off the sequences shown.

Chains of the proteins cited; added tags and fusions are not shown. Lines headed by an entry give the natural chain unless they say otherwise; changes in a name come on top.
UniProt P12613: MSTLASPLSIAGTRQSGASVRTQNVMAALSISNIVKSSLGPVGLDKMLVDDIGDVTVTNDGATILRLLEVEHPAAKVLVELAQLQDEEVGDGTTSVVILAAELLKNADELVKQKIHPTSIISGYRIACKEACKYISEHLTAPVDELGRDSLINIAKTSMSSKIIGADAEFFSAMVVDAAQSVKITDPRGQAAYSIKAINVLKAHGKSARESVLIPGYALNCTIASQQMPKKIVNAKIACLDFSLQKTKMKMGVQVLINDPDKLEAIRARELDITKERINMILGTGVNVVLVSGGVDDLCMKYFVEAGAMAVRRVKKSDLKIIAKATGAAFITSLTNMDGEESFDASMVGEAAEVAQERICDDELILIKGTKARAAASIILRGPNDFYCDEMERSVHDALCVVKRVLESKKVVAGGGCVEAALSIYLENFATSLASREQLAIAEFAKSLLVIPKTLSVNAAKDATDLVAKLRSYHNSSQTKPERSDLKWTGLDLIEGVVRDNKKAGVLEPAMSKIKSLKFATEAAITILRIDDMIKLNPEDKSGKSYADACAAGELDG
UniProt Q9VK45: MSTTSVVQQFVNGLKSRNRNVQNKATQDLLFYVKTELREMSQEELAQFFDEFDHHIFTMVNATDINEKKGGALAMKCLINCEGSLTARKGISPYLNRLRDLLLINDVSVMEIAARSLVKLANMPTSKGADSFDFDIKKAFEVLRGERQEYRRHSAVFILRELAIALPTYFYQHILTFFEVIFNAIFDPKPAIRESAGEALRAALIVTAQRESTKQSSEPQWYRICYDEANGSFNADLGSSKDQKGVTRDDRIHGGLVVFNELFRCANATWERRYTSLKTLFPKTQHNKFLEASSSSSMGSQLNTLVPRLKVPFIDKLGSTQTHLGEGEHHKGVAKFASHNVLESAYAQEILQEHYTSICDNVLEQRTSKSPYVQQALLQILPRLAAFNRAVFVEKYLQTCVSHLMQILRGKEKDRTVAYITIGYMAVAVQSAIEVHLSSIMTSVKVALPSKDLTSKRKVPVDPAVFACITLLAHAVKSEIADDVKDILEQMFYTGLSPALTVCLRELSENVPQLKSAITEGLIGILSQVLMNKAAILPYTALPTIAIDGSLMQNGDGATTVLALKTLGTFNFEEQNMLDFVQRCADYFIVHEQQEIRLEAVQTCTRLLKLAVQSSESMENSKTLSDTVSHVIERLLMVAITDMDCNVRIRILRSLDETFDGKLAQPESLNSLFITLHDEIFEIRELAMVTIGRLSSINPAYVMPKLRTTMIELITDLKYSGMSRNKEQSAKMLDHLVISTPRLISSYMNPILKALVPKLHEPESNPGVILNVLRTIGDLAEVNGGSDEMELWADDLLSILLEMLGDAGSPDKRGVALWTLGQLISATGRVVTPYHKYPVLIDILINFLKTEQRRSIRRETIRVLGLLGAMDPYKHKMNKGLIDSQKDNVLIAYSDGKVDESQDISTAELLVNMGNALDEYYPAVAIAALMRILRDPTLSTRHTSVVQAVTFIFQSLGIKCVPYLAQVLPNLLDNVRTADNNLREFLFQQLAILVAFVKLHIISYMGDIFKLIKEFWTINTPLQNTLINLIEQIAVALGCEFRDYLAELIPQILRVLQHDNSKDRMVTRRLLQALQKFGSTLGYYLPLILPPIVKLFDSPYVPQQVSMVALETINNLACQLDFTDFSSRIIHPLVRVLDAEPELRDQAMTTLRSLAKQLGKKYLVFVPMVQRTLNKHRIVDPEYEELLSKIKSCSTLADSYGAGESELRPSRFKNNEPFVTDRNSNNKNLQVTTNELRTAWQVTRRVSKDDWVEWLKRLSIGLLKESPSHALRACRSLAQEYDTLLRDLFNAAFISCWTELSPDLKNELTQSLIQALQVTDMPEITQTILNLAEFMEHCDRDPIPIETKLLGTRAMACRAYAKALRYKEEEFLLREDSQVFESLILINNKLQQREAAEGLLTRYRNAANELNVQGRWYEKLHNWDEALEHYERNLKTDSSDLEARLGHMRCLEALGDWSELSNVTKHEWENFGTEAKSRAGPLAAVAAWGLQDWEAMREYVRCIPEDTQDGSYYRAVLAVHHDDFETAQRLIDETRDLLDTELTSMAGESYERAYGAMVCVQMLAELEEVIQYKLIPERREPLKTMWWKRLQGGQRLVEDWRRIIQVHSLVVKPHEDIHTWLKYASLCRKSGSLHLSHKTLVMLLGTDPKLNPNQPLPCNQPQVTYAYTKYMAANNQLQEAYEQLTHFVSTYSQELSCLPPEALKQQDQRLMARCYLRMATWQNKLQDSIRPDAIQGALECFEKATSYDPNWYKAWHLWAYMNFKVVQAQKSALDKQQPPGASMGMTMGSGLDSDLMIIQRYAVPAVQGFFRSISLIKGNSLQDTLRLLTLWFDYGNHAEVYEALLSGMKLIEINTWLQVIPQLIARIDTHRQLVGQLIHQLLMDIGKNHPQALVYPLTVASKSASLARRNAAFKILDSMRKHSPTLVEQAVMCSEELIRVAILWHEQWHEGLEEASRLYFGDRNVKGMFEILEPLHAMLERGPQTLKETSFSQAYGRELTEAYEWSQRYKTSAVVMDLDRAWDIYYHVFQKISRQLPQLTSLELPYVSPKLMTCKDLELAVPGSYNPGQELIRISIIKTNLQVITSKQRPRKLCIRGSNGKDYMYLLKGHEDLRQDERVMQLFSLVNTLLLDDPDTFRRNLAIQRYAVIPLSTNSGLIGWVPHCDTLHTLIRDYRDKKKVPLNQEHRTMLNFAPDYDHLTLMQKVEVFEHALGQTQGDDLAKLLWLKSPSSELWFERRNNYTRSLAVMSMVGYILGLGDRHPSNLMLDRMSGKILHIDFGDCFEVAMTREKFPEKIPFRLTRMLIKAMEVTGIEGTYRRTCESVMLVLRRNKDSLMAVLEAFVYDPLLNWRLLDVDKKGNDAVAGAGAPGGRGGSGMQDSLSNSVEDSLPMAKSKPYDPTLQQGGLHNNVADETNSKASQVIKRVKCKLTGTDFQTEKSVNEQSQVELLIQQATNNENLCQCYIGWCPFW

What was measured:
[1] = molecular target: T1, endogenous CCT4 (adult fly extracts) (Drosophila (endogenous in adult flies)) (UniProt Q9VK69); assay: co-IP; endogenous proteins in adult fly extracts; 1 mg lysate in IP buffer (20 mM HEPES pH 7.4, 80 mM KCl, 0.2% NP-40), antibody overnight at 4 °C, Protein A beads
T1 sequence: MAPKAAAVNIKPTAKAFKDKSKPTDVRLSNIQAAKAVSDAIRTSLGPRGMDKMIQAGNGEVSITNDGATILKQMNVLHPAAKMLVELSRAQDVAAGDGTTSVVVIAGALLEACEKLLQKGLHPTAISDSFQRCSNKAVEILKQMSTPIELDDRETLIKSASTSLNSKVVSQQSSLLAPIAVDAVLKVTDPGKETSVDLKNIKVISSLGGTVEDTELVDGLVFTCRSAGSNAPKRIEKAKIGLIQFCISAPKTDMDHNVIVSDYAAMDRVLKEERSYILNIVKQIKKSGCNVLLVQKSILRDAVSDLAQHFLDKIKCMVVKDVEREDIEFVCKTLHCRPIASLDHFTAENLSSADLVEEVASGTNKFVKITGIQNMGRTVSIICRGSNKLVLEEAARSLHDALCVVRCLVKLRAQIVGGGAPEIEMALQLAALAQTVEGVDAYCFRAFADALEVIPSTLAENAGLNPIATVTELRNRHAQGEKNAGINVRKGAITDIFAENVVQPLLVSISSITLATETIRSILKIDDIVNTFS

[2] = molecular target: T2, endogenous CCT4 (S2R+ cell lysates) (Drosophila (endogenous in S2R+)) (UniProt Q9VK69); assay: co-IP; endogenous proteins in S2R+ cell extracts; 1 mg lysate in IP buffer (20 mM HEPES pH 7.4, 80 mM KCl, 0.2% NP-40), antibody overnight at 4 °C, Protein A beads
T2 sequence: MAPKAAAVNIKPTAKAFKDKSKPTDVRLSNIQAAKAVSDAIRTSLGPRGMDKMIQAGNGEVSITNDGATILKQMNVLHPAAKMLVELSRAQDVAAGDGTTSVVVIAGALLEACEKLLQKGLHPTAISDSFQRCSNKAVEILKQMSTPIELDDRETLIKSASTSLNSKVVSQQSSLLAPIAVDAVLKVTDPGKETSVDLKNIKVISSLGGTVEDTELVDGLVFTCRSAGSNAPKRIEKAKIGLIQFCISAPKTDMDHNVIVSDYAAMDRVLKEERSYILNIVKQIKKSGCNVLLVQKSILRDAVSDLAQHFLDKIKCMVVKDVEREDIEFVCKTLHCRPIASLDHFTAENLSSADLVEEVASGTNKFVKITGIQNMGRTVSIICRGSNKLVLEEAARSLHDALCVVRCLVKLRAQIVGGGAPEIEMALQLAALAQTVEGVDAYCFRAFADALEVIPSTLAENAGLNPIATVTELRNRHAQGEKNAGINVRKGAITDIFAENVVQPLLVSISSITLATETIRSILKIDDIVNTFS

[3] = molecular target: T3, Myc-CCT4 (Drosophila) (UniProt Q9VK69); assay: co-IP; extracts of S2 cells transfected with Myc-CCT4 and Rheb-V5; 1 mg lysate in IP buffer (20 mM HEPES pH 7.4, 80 mM KCl, 0.2% NP-40), antibody overnight at 4 °C, Protein A beads
T3 sequence: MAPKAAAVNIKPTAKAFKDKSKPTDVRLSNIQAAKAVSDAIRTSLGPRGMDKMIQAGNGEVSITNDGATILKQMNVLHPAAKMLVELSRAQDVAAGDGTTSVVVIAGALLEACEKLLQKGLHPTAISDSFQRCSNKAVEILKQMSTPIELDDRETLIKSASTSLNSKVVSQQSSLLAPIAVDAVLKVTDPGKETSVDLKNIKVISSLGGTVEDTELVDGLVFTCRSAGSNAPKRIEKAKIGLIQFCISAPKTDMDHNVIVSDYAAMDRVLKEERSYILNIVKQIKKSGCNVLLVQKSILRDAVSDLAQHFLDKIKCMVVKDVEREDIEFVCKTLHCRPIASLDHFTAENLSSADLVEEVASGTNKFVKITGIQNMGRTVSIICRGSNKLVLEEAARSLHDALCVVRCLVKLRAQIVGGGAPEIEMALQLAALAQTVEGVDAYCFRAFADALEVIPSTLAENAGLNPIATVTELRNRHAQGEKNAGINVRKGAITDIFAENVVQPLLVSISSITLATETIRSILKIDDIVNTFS

[4] = molecular target: endogenous CCT1 (adult fly extracts) (Drosophila (endogenous in adult flies)) (UniProt P12613); assay: co-IP; endogenous proteins in adult fly extracts; 1 mg lysate in IP buffer (20 mM HEPES pH 7.4, 80 mM KCl, 0.2% NP-40), antibody overnight at 4 °C, Protein A beads
[5] = molecular target: T4, MBP-Rheb^1–48 (Drosophila) (UniProt Q9VND8); assay: pull-down; MBP-pulldown of MBP-tagged bait with GST-CCT4; pulldown buffer 20 mM Tris pH 7.5, 150 mM NaCl, 0.5 mM EDTA, 10% glycerol, 0.1% Triton X-100, 1 mM DTT; blots with anti-MBP and anti-GST; both purified
T4 sequence: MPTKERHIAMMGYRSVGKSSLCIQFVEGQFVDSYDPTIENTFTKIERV

[6] = molecular target: T5, MBP-Rheb^Δ49–63 (Drosophila) (UniProt Q9VND8); assay: as above
T5 sequence: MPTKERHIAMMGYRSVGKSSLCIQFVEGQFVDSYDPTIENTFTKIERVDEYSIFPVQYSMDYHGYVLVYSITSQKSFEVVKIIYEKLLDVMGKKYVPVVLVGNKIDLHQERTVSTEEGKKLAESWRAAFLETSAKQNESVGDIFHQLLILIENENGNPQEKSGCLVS

Molecule: endogenous TOR (adult fly extracts) (from UniProt Q9VK45 1-2470)
- binding [1]: binds

Molecule: endogenous TOR (S2R+ cell lysates) (from UniProt Q9VK45 1-2470)
- binding [2]: binds

B1: Rheb-V5 (protein, UniProt Q9VND8 1-182)
chain: MPTKERHIAMMGYRSVGKSSLCIQFVEGQFVDSYDPTIENTFTKIERVKSQDYIVKLIDTAGQDEYSIFPVQYSMDYHGYVLVYSITSQKSFEVVKIIYEKLLDVMGKKYVPVVLVGNKIDLHQERTVSTEEGKKLAESWRAAFLETSAKQNESVGDIFHQLLILIENENGNPQEKSGCLVS
- binding [3]: binds

B2: endogenous Rheb (adult fly extracts) (protein, UniProt Q9VND8 1-182)
chain: MPTKERHIAMMGYRSVGKSSLCIQFVEGQFVDSYDPTIENTFTKIERVKSQDYIVKLIDTAGQDEYSIFPVQYSMDYHGYVLVYSITSQKSFEVVKIIYEKLLDVMGKKYVPVVLVGNKIDLHQERTVSTEEGKKLAESWRAAFLETSAKQNESVGDIFHQLLILIENENGNPQEKSGCLVS
- binding [1]: binds
- binding [4]: binds

B3: GST-CCT4 (protein, UniProt Q9VK69 1-533)
chain: MAPKAAAVNIKPTAKAFKDKSKPTDVRLSNIQAAKAVSDAIRTSLGPRGMDKMIQAGNGEVSITNDGATILKQMNVLHPAAKMLVELSRAQDVAAGDGTTSVVVIAGALLEACEKLLQKGLHPTAISDSFQRCSNKAVEILKQMSTPIELDDRETLIKSASTSLNSKVVSQQSSLLAPIAVDAVLKVTDPGKETSVDLKNIKVISSLGGTVEDTELVDGLVFTCRSAGSNAPKRIEKAKIGLIQFCISAPKTDMDHNVIVSDYAAMDRVLKEERSYILNIVKQIKKSGCNVLLVQKSILRDAVSDLAQHFLDKIKCMVVKDVEREDIEFVCKTLHCRPIASLDHFTAENLSSADLVEEVASGTNKFVKITGIQNMGRTVSIICRGSNKLVLEEAARSLHDALCVVRCLVKLRAQIVGGGAPEIEMALQLAALAQTVEGVDAYCFRAFADALEVIPSTLAENAGLNPIATVTELRNRHAQGEKNAGINVRKGAITDIFAENVVQPLLVSISSITLATETIRSILKIDDIVNTFS
- binding [5]: binds weakly
- binding [6]: binds weakly
